This note sets out measurements from PMC3579733.

Results are given in words; binding and its absence hold for the method and conditions named. In cells and extracts the contact can be indirect. These calls come from enrichment with a bait or labelling near it, and not all partners need be listed. For some of these results: A no says only that the protein was not detected with the bait.

Experiment [1] concerns the target T1, CheW2 (Halobacterium salinarum R1 (DSM 671)) (UniProt Q9HQY8).
T1 sequence: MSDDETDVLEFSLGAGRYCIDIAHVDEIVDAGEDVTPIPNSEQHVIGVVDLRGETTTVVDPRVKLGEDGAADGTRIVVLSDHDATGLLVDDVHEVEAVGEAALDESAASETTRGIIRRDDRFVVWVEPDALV
The experiment is described as follows: affinity purification with mass spectrometry; two-step bait fishing: bait-CBD bound to a cellulose column and stringently washed (CFE + 1% NP40 + 20% ethylene glycol), then incubated with lysate of wild type cells (12C6-leucine); plain CBD column with 13C6-leucine lysate as control; SILAC, association score > 7 counts as interaction; only the target purified.

Experiment [2] addresses T1, CheW2 (Halobacterium salinarum R1 (DSM 671)). The experiment in a line: affinity purification with mass spectrometry; comparative two-step bait fishing: CheW1 on one cellulose column with light (12C) lysate, CheW2 on a second column with heavy (13C) lysate, the second CheW as control instead of plain CBD; only the target purified.
The target of experiment [3] is T2, CheW1 (Halobacterium salinarum R1 (DSM 671)) (UniProt Q9HQW5).
T2 sequence: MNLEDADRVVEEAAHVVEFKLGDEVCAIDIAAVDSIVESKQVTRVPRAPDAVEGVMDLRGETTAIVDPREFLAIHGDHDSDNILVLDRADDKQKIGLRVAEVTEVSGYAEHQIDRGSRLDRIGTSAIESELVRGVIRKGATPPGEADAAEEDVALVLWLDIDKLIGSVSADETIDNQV
The experiment is described as follows: affinity purification with mass spectrometry; one-step and two-step bait fishing taken together (final data set; both methods applied to all baits); the place does not tell which of the two gave the result.

For experiment [4], the target named is T3, CheY (Halobacterium salinarum R1 (DSM 671)) (UniProt B0R4K1).
T3 sequence: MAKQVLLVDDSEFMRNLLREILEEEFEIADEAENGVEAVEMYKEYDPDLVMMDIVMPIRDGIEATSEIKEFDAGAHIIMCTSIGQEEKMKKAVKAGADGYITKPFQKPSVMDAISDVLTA
Described as above.

Experiment [5] has as its target T4, CheA (Halobacterium salinarum R1 (DSM 671)) (UniProt B0R4J9).
T4 sequence: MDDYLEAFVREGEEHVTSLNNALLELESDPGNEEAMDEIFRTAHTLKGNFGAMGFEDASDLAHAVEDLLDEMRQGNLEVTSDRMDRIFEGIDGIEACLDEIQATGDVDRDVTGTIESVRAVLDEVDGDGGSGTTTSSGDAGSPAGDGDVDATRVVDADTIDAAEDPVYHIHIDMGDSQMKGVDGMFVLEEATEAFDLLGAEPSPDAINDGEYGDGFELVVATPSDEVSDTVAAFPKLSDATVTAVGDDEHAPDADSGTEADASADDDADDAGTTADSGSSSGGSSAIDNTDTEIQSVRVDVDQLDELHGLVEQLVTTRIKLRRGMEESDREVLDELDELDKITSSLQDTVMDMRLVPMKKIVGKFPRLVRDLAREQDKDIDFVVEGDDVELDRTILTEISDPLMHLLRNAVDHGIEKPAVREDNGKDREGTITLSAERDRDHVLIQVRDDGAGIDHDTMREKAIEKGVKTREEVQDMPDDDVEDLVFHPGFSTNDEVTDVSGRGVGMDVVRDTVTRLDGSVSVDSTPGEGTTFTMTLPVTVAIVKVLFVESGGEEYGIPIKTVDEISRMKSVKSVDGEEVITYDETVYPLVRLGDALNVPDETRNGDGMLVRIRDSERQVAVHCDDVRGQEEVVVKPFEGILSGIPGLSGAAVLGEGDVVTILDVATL
The experiment is described as above.

In experiment [6] the target is T2, CheW1 (Halobacterium salinarum R1 (DSM 671)). The experiment in a line: affinity purification with mass spectrometry; comparative two-step bait fishing: CheW1 on one cellulose column with light (12C) lysate, CheW2 on a second column with heavy (13C) lysate, the second CheW as control instead of plain CBD; only the target purified.
For experiment [7], the target named is T4, CheA (Halobacterium salinarum R1 (DSM 671)). The experiment in a line: affinity purification with mass spectrometry; one-step bait fishing: lysates of the bait-CBD strain (13C6-leucine) and of the bait-control strain without CBD (12C6-leucine) mixed, one cellulose column, CFE buffer (3 M KCl, 1 M NaCl, 400 mM NH4Cl, 40 mM MgCl2, 10 mM Tris/HCl pH 7.5), washes with 0.5% NP40, room temperature; SILAC, association score > 7 counts as interaction.

The target of experiment [8] is CheD (Halobacterium salinarum R1 (DSM 671)). The experiment in a line: affinity purification with mass spectrometry; one-step and two-step bait fishing taken together (final data set; both methods applied to all baits); the place does not tell which of the two gave the result.
Experiment [9] addresses OE4643R (Halobacterium salinarum R1 (DSM 671)). Described as above.

As for Htr15 (receptor), the binding result in [1] was “binds”; in experiment [2] it was “binds”; in experiment [3], “binds”; in [4], “binds”; in experiment [5], “no binding”.

B1: CosT (receptor, UniProt B0R6A7 1-810)
chain: MSEPTADAGDNSPSSTDTAPLDRVKAIALLPLRSYLVKFAVALLVILVIIAAGGFWVQADATATLEANTEQQLEQEAVSDATEIGDWLERNEQSVLIASNNPRLGFNTTAADKQAYVTQLVAAELDADRIADVHVADPTVGGASDARIVASTDEDARGTRVSADTHPWVDRTRSIGRDTVVSTNPYRTAGGQRVVSSMSVAADLTHVLVVEYTAGDLSDQFGAGIDGTFTQVVRPTSDATAVLFSDAGTDAVGQPYIPDRSQSEIPALDSATEQGQFTNTPTKDSVLDREYVAAYTTVPGKNWVVVKHAPSESAFALSNQIRTGILGFILVALVGVVLVGGTIGRNTAAAVQSLSAAAAEIEAGNYDVDVASSRRDEIGQLFASIGSMRDALVTQIDEAEAAREQATEAQQDAEAERERAEDARERAEDAKADAEALAAELEAQAERYSDVMAACADGDLTRRMPADDTDNEAMAAIAASFNEMLAQWEHTIIDIQEFADAVATASEEAEVGAADAERASGQVSESVQEIAGAADEQRNMLDTVSGEMTDLSAAIEEVAASADSVAEHSHQTAEIARDGEQTAEDAIERSLTVQEAIDATVQNVEALDDQMAEISEIVDLISDIAEQTNMLALNANIEAARADKSGDGFAVVADEVKDLAEETQESAGDIERRITEVQSQTTATVAEARAAEESMDAGIDAVEEVVDAFTAVSDHADETDTGVQEISDTTDDQAASTEEAVSMTEEVADLSDSTAGEAQSVSAAAEEQAASMSEISDSVESLSGQAEQLKALLSEFEVDADRDVTPTQTD
In the case of B1, the binding entry in experiment [1], in experiment [6], in experiment [2], in experiment [7], in experiment [3] and in experiment [4] was “binds” each time. Besides, the binding entry in [8] and in experiment [9] was “no binding” in each case.

B2: HtrVIII (receptor, UniProt B0R5T0 1-643)
chain: MGESARGGGSAETTGGLAAAVKTYLEYTPTGESIPAAAWRRRHRNVRVFVLAHIPLLLALGLYEGTESAVTGATIPPTPGILIAAELGIVGALVGLASIPSVSRRGRTALASTAVLASSVVLVQFSGGFIEAHFHFFVGMAVIAVYEDWLPFALGLVYVVFTHGVFGMINAERVYNHTAAINNPWVWGGIHGAFVLLLAGALMANWYSTERSREASQKRLEEARQKAQQVEDLEARQAEIEAEKAEAKRLKADAEEAREAAEAQQREVAALNERLEATANTYGAAMARAADGDLSVRLDPDVENDAMAAIAASFNEMLDETETTIREIQAVASDVAAASEDADAGVVEIEDASGQVSETVQEIAAGADEQREKLETVSGEMTDLSAAIEEVAASADSVAERSHETAAVAGDGEQTAEQAIADSRTVQSAVESTVQNVEALDDQLAEISEIVDLISDVAEQTNMLALNANIEAARADKSGDGFAVVADEVKDLAEETRASAGDIEALVADIDAQMQATVTEARTADESVQDAISAVDAVVDAFGTVAENAEETDTGVQEISTTTDDQAASTEEAVSMIAEVSDISTATAADAQQASTAAEQQTTAAATISENTAALREQADRLQGLVSTFDVHDESASTAARSE
With B2, the binding result in [1], in experiment [6], in [2], in experiment [7], in experiment [3] and in experiment [4] was “binds” throughout. The binding entry in [8] and in [9] was “no binding” in each case.

B3: Htr6 (receptor, UniProt B0R461 1-789)
chain: MSDGITGALRNAASVVAPDAIRRRFGAKFAVAFIVVLVVIAGAGVFAFQSTETTVEHQTTRQLAESNQLEADAIGAWMEQQRTHARSVSQDEALRDDRRAAPYILLKDQLLPADVVSMHLVNETRGTVVASTELAIEGRSLAELDAPWTTAAVPEGPGNDSAVWATEQSYRSPVLNDEPVMAFASSVPKREGAHLVVVTRIQPQVDRLSDANSTRRTTILNTGDEPVLDSNSRFDAGALTDSIAAVRNDTTAATTTVSNGRVYALSATPHTDWVTVTSVDTGEAFAVRDTVGQTVTVLVVLAVISLAIVGIALGRHTVTPLKRLRNRAQDIESGTFDVDLSTRRIDEVGRLYGSFDDMRVSLQDRIQEAEAAVEEANAAKAEAEELRTDAEDAQAEAERAKATAEAASERLQERAADYSEVMQAVADGDLTERLDEDADEEAMRAVATEFNAMLDGLEATIAQVAGFADEVADETLQVATGAEEIETTSQTVSERIQEIADGAIQQHDDLERAAGEMDELSASIQEVAASSATVAETAADAVERGEAGRDAAESAIDDMAEIESLSADAVDQILALQERMSDIGDIIEFITDIAEQTNMLALNANIEAARADKDGDGFAVVANEVKDLAEETKQAAADIESEIQAVQAETDETVADIRATSEHIDDGVSTVERAAAAIEDTVDAIEDANHGIQEISDATEDQADATQSVVRRVDDVADISQHVTEDAEQVSAAAEEQSASVAEIARSADDLRDRADALATTVNQFETRADADEPDADTTVDASADDTGD
Regarding B3, the binding entry in [1], in [6], in [2], in [7], in [3] and in experiment [4] was “binds” throughout. Also, the binding entry in experiment [8] and in [9] was “no binding” in each case.

B4: HtrII (receptor, UniProt B0R6B1 1-764)
chain: MGSGLVARIRGSYGTKLTLALVVVVVLSVGVGTFVYQQTTTQLETDVRADLTGSADARADHLDAWLSNARGQTQLASRHPVLASGNDTAITRYLEGLAASDERPDGVVAAHVYNTSTTTIEASSADAFTGVNPREQGAPFATDPPSFATTSDVVVAAPFTVPAADFPVLSVLSPIPGTTDKALIYMVNVNTLTDDFGQNVAGSTTTVVSADGTYVSHPDQDRVLTGHDGPSRLLNQSRTQPAYIDANGTVTAAAPVDGAPWSVLVRAPHDRAFALGDFVASSLVGLVLITIVSLSLIGVTVGSTTVTALRQFSRRADEMAAGDLDTDIDTSRNDEFGTLAESFRSMRDSLSESLTDAERATARAEDAREDAEQQRADAEAAREDAEAARKDAQETARALESAAADYEEALTAVADGDLTRRVDASRDHDAMARIGHALNDMLDDIETSVAAATAFSDHVSDAAQRVEADAGDAIDAGTDVSTAVDEISDGATEQTDRLHEVAGEVDDLSASAEEVAETVASLADTAGQAASAVDDGRQATEDAVETMDDVADDAEAAADAMDALDSEMADIGEIVDVIADIADQTNMLALNASIEAARTGADGDGFAVVADEVKTLAEESRDAAEDIESRLLALQGQVSDVADEMRATSDTVSDGRATVGDAATALDDVVSFVADTDTAAGEIRAATDRQAHAASRVASAVDEVAGISQETAAQATAVADSAATQTDTLSSVDDAAADLADRAAALDDLLAEFDAHDDTEPEDY
Regarding B4, the binding result in experiment [1], in [6], in [2], in [7], in experiment [3] and in [4] was “binds” each time. The binding entry in experiment [8] and in experiment [9] was “no binding” in each case.
